In PubChem BioAssay AID2551 (National Center for Advancing Translational Sciences (NCATS), 2010):
“And” between values parts separate entries of the source, which are not always exact repeats. Identical values can stand only once. Hit rate of the full screen: of about 310,000 compounds, about 17,000 (5.5%) were called active. The shares of active, inactive and inconclusive entries below differ from those in the screen. The call rests on the fitted dose curve; in most records, active means well fitted inhibition curve with a large enough effect; inconclusive means small, poorly fitted or top-dose-only effect, or effect the other way; inactive means no such curve, though single readings can be large or run the other way. A potency beside an inconclusive call is a rough fit, not a confirmed value.
Further: nearly all actives have a fitted effect of over 60% in size.
On the % scale 0 is the no-effect control and ±100 the full control effect; potency means the concentration at half of the fitted maximal effect.

Sequences of proteins named here, by UniProt entry; tags and fusion partners are left off. A change or cut given only in a name is not applied to a line headed by its entry.
UniProt P51450: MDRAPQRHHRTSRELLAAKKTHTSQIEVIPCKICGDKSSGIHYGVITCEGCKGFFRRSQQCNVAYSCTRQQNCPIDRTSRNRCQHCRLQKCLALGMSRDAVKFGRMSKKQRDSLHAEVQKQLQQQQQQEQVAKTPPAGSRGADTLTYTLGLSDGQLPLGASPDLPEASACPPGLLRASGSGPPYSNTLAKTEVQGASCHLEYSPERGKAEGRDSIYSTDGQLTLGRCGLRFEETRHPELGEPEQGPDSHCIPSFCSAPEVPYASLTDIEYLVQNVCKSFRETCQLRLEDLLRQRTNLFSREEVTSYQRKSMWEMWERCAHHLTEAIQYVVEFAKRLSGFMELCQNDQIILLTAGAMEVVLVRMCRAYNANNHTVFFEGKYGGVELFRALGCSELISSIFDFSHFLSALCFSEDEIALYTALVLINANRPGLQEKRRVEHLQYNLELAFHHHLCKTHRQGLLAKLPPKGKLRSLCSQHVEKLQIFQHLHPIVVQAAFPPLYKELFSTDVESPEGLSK

Each compound was assayed against Nuclear receptor ROR-gamma (Mus musculus) (UniProt P51450) (assay: qHTS for inhibitors of ROR gamma transcriptional activity). Details: Drosophila S2 Gal4-RORgamma UAS-luciferase reporter, 20 h; activity change, negative = inhibition: at 53.6 µM (top of the series).
How it was run: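 A Gal4/UAS one-hybrid system in insect cells: metallothionein-promoter Gal4–ROR gamma fusion plus Photinus luciferase reporter. Copper sulfate 700 uM final, 20 hr ambient incubation, luminescent detection after 10 min with reagent.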
For COc1ccc(Nc2nc3ccccc3s2)cc1, the Potency was inconclusive: 35.5 µM [inhibitor, single point]. For CCN(CC)CCNC(=O)Cn1cnc2sc(C)c(S(=O)(=O)N3CCOCC3)c2c1=O, the Potency was inconclusive: 4.47 µM [activator, single point]. In the case of O=C(Cc1ccc(F)cc1)N1CCC(CC2CC(c3cccc(Br)c3)=NO2)(C(=O)NCC2CCCCC2)CC1 (stereo not given), the Potency is reported as inconclusive: 14.1 µM [activator, partial curve]. With C=CCNC(=S)Nc1sc2c(c1C(=O)OCC)CC(C)(CC)OC2 (stereo not given) the Potency was active: 2.82 µM. For COc1cccc(NC(=O)c2ccc3c(c2)CCN3S(C)(=O)=O)c1, the Potency was inconclusive: 15.8 µM [activator, single point]. For CC(C)Nc1nc(-c2ccccc2)nc(-n2ccnc2)n1, the Potency was inconclusive: 14.1 µM [inhibitor, single point]. CC1=CC(=C(C#N)c2nc3ccccc3s2)C=C(C)N1c1ccc(F)cc1F was tested, and the Potency was inconclusive: 3.16 µM [activator, full curve]. For Cc1nc2ccccc2c2oc(C(=O)N3CCCC(C)C3)cc12 (stereo not given), the “activity change, negative = inhibition” value was inactive: -15.6%. With COc1ccc(NC(=S)NCCCCCC(=O)C[N+](=O)[O-])cc1 the Potency was active: 4.47 µM. In the case of COc1ccc(C(=O)Cn2c(N3CCOCC3)nc3c2c(=O)n(C)c(=O)n3C)cc1, the “activity change, negative = inhibition” value is reported as inactive: 22.2%. In the case of O=C(Nc1cnn(Cc2ccc(Cl)cc2)c1)c1ccc([N+](=O)[O-])cc1, the Potency is reported as inconclusive: 17.8 µM [activator, partial curve]. CCN1C(=O)c2ccccc2S(=O)(=O)c2ccc(C(=O)NCC(OC)OC)cc21 was tested, and the “activity change, negative = inhibition” value was inactive: -9.51%. Cc1ccccc1Cn1nc(C)c(NC(=O)C2(C)CC2(Cl)Cl)c1C (stereo not given) was tested, and the “activity change, negative = inhibition” value was inactive: -1.8%. CC(=O)N1c2ccc(S(=O)(=O)N3CCC(C(=O)N4CCN(c5ccccc5F)CC4)CC3)cc2CC1C (stereo not given) was tested, and the Potency was inconclusive: 15.8 µM [inhibitor, single point]. COc1cc(NC(=O)c2ccccc2)c(OC)cc1NC(=O)Cc1ccc(Br)cc1 was tested, and the Potency was inconclusive: 14.1 µM [inhibitor, single point]. With N=c1c2c(-c3ccccc3)c(-c3ccccc3)n(Cc3ccccc3)c2ncn1CCCO the Potency was inconclusive: 35.5 µM [inhibitor, single point]. O=C(COC(=O)CCc1nc2ccccc2s1)Nc1ncc(Cl)cc1Cl was tested, and the Potency was inconclusive: 12.6 µM [activator, partial curve]. With Cc1cccc(-c2noc(-c3ccc(F)cc3)n2)c1 the Potency was inconclusive: 35.5 µM [inhibitor, single point]. CCSc1nnc(NC(=O)C(NC(=O)c2ccc(Cl)cc2)C(C)C)s1 (stereo not given) was tested, and the Potency was inconclusive: 4.47 µM [activator, full curve]. With COc1ccc(C(CCNCc2ccccc2F)c2ccc(F)cc2)cc1 (stereo not given) the Potency was inconclusive: 15.8 µM [inhibitor, single point]. CC(C)CCNC(=O)COc1ccc2c3c(c(=O)oc2c1)CCC3 was tested, and the “activity change, negative = inhibition” value was inactive: -0.16%. With Cc1nc(SCc2cccc(Oc3ccccc3)c2)n[nH]1 the Potency was inconclusive: 17.8 µM [activator, partial curve]. With O=C1C(Cl)=C(NCCN2CCOCC2)C(=O)c2ncccc21 the Potency was active: 3.98 µM and active: 4.47 µM. With O=C(Nc1ncc([N+](=O)[O-])s1)c1ccc2c(c1)OCO2 the Potency was active: 1.78 µM. In the case of COc1ccc(CCNC(=S)NC(=O)/C=C/c2ccc(C)cc2)cc1OC, the Potency is reported as active: 3.16 µM. In the case of O=S(=O)(Cc1ccccc1)N1CCN(Cc2ccc(Br)cc2)CC1, the Potency is reported as inconclusive: 35.5 µM [inhibitor, single point]. CCCCCN=C(C)c1c(O)c2ccccc2oc1=O was tested, and the Potency was inconclusive: 2.82 µM [activator, single point]. In the case of C/C(N)=C(/C#N)C(=O)CSc1nc2scc(-c3ccccc3)c2c(=O)n1C, the Potency is reported as inconclusive: 35.5 µM [inhibitor, single point]. In the case of Cc1nc(SCC(=O)c2ccc(Cl)s2)c2oc3ccccc3c2n1, the Potency is reported as inconclusive: 5.01 µM [activator, partial curve, poor fit]. For C=CCOC(=O)C1=C(C)OC(N)=C(C#N)C1c1ccc2c(c1)OCO2 (stereo not given), the Potency was inconclusive: 35.5 µM [inhibitor, single point]. Cc1cc(NC(=O)COC(=O)C(Nc2ccc(C(F)(F)F)cc2Cl)C(C)C)no1 (stereo not given) was tested, and the Potency was inconclusive: 35.5 µM [inhibitor, single point]. In the case of CCOC(=O)C1CCN(C(=O)c2cc(OCC)c(OCC)c(OCC)c2)CC1, the Potency is reported as inconclusive: 35.5 µM [inhibitor, single point]. For N#CCCn1c(=O)c(-c2ccccc2)nc2cnc(Oc3ccccc3)nc21, the “activity change, negative = inhibition” value was inactive: 2.28%. COc1ccc(CN(C(=O)CN2C(=O)c3ccccc3S2(=O)=O)C(C(=O)NCC2CCCO2)c2ccco2)cc1 (stereo not given) was tested, and the “activity change, negative = inhibition” value was inactive: -1.17%. With O=C(NCc1ccco1)c1sc(=S)n2c1[nH]c(=O)c1ccccc12 the “activity change, negative = inhibition” value was inactive: -5.27%. In the case of C=CCn1c(-c2ccc(Cl)cc2)cnc1SC(C)C(=O)NC(N)=O (stereo not given), the Potency is reported as inconclusive: 15.8 µM [inhibitor, single point]. CCOC(=O)C1=C(COc2ccccc2)NC(=O)NC1c1cccc([N+](=O)[O-])c1 (stereo not given) was tested, and the “activity change, negative = inhibition” value was inactive: 29.3%. For Cc1cccc(C2=NC(C(F)(F)F)(C(F)(F)F)c3c(n(-c4ccc(F)cc4)c(=O)[nH]c3=O)N2)c1, the Potency was inconclusive: 7.08 µM [activator, partial curve]. With COc1ccc2cc3c(N)nn(C(=O)c4ccccc4[N+](=O)[O-])c3nc2c1 the Potency was inconclusive: 1.41 µM [activator, full curve, poor fit]. S=c1[nH]c2ccc(Cl)cc2s1 was tested, and the Potency was inconclusive: 17.8 µM [inhibitor, single point]. In the case of Cc1cc(C)c(C(=O)N2CCCC(N3CCN(c4cccc(C(F)(F)F)c4)CC3)C2)o1 (stereo not given), the Potency is reported as inconclusive: 31.6 µM [activator, single point]. Cc1ccc(CNC(=O)COc2ccc(C(=O)c3ccc(F)cc3)cc2)cc1 was tested, and the “activity change, negative = inhibition” value was inactive: 19.9%. With CCOc1ccc(NS(=O)(=O)c2c(C)nc3sccn3c2=O)cc1 the Potency was inconclusive: 20 µM [activator, single point]. In the case of O=C(CSc1ccc(Cl)cc1)Nc1ccc(NC(=O)c2ccco2)cc1, the Potency is reported as inconclusive: 3.98 µM [inhibitor, full curve, poor fit]. For CCOC(=O)C1(Cc2ccc(Cl)cc2)CCN(C(=O)c2cscn2)CC1, the “activity change, negative = inhibition” value was inactive: 20.2%. With COCc1cc(N2CCOCC2)nc(SCc2ccc(Cl)cc2)n1 the Potency was inconclusive: 0.708 µM [inhibitor, single point]. With Brc1ccc2ncnc(NCc3ccccc3)c2c1 the Potency was inconclusive: 22.4 µM [inhibitor, single point]. Cc1nc(C)c(C(=O)NNS(=O)(=O)c2ccc3ccccc3c2)s1 was tested, and the Potency was inconclusive: 1.41 µM [activator, single point]. CCS(=O)(=O)NCCc1cc2c(OC)ccc(OC)c2[nH]c1=O was tested, and the Potency was inconclusive: 35.5 µM [activator, single point]. CC1CCN(S(=O)(=O)c2cccc(C(=O)N3CCN(c4ccc(F)cc4)CC3)c2)CC1 was tested, and the Potency was inconclusive: 11.2 µM [inhibitor, partial curve, poor fit]. CCN1CCC[C@H]1CNC(=O)c1cc(S(N)(=O)=O)ccc1OC was tested, and the Potency was inconclusive: 35.5 µM [inhibitor, single point]. CCOC(=O)c1cc(-c2ccccc2)n(CCC(=O)N2CCN(c3ccccc3OC)CC2)c1C was tested, and the Potency was inconclusive: 14.1 µM [activator, partial curve]. With C=CCN(C(=O)CSc1nc2c(sc3ccccc32)c(=O)n1CCN(CC)CC)c1ccccc1 the Potency was inconclusive: 35.5 µM [inhibitor, single point]. With CCOc1ccc(-n2c(C)c(C(C)=O)c(C(C)=O)c2C)cc1 the “activity change, negative = inhibition” value was inactive: 22.8%. COc1cc(CNCc2c[nH]c3ccccc23)cc(OC)c1 was tested, and the Potency was inconclusive: 17.8 µM [activator, single point]. O=C(NCCc1cn2ccccc2n1)c1ccccc1F was tested, and the “activity change, negative = inhibition” value was inactive: -14.1%. CCOc1ccc(N(CC(=O)NCC2CCCO2)S(=O)(=O)c2ccc(C)cc2)cc1 (stereo not given) was tested, and the “activity change, negative = inhibition” value was inactive: -1.53%. For COCCCNC(=S)NCCNc1nc2c(C)c(C)ccc2cc1C#N, the Potency was active: 17.8 µM. In the case of COC(=O)N1CCC[C@@]2(CCN(c3ncccn3)C2)C1, the “activity change, negative = inhibition” value is reported as inactive: 2.99%. In the case of COC(=O)CC1C(=O)NCCN1Cc1cn(-c2ccc(C)cc2)nc1-c1cccc(C)c1 (stereo not given), the Potency is reported as inconclusive: 11.2 µM [activator, partial curve]. In the case of CCc1ccccc1NC(=O)C1CCCN(S(=O)(=O)c2ccc3c(c2)CC(C)N3C(C)=O)C1 (stereo not given), the “activity change, negative = inhibition” value is reported as inactive: -9.88%. For COc1ccccc1Nc1nc(N)nc(CSC(=S)N2CCCCC2C)n1 (stereo not given), the Potency was active: 7.94 µM. For CCSc1nnc(NC(=O)CSc2nnc(CNC(=O)c3ccc(OC)c(OC)c3)o2)s1, the Potency was active: 17.8 µM. Cc1cc(C)n(/N=C\c2c(O)ccc3ccccc23)c(=O)c1C(N)=O was tested, and the Potency was inconclusive: 6.31 µM [inhibitor, partial curve]. In the case of Cc1ccc(C)c(NC(=S)N2CCCCCC2)c1, the Potency is reported as active: 12.6 µM. With COc1cc(C(=O)Nc2ccc(C(N)=O)cc2)c([N+](=O)[O-])cc1OC the Potency was inconclusive: 10 µM [inhibitor, partial curve, poor fit]. For COC(=O)Cc1ccc(NC(=S)NCCSc2ccc(Cl)cc2)cc1, the Potency was active: 15.8 µM. For c1ccc(C2Nc3ccccc3-c3nc4ccccc4n32)nc1 (stereo not given), the Potency was active: 8.91 µM. CC1=N/C(=C\c2ccc([N+](=O)[O-])cc2)C(=O)N1c1cc(Cl)ccc1C was tested, and the “activity change, negative = inhibition” value was inactive: 24.3%. For O=C(CCS(=O)(=O)c1ccc(Cl)cc1)OCC(=O)N1CCCCC1, the Potency was inconclusive: 35.5 µM [inhibitor, single point].
